Primary screen of a compound library

By UniProt entry, the sequences of proteins in these tests, tags left out. Residues count along the entry.
UniProt I6X8D2, whole entry: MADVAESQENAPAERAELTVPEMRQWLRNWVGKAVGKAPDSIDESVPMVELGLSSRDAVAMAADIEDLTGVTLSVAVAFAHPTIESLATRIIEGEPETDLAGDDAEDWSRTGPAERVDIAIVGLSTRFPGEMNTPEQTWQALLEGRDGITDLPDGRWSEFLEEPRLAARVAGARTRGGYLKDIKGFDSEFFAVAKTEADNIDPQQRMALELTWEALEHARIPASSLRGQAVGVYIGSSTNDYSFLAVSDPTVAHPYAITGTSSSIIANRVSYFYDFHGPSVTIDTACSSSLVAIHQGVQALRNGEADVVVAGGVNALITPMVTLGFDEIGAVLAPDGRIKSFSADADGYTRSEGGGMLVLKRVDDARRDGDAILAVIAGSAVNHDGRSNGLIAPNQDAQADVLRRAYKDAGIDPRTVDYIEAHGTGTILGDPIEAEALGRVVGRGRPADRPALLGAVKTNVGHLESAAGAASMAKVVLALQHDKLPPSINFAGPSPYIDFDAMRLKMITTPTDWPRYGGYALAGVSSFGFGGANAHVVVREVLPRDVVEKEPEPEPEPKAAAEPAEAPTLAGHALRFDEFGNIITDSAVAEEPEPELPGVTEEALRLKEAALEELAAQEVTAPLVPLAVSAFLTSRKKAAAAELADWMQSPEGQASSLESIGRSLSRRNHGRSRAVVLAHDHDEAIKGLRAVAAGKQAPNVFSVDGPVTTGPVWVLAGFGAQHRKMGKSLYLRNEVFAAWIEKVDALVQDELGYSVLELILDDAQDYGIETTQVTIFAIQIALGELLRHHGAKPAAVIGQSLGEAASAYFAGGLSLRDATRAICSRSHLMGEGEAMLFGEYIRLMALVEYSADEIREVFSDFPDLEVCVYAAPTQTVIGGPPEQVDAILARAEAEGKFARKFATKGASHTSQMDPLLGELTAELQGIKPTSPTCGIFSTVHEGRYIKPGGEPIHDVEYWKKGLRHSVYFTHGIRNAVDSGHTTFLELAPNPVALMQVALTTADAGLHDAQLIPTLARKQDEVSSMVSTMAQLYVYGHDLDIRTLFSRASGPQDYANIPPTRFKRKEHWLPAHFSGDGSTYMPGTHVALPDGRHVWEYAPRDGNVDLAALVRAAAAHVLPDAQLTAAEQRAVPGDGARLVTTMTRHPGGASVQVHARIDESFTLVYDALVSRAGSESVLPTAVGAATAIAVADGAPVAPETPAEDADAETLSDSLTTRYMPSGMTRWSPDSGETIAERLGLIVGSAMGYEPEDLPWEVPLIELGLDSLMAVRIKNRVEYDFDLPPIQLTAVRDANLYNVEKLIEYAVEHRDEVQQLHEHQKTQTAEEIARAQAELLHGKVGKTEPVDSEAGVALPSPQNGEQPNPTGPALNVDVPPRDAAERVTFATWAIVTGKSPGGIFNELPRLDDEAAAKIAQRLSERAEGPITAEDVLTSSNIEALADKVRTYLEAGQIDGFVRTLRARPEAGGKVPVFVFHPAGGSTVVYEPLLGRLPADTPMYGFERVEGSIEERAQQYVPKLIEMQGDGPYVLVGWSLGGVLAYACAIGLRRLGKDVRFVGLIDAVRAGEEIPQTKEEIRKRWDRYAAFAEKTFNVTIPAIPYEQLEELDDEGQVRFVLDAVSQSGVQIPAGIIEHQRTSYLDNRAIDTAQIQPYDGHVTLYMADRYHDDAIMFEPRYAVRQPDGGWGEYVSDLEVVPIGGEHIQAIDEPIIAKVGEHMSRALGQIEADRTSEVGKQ
UniProt Q8IDJ8, 1-583: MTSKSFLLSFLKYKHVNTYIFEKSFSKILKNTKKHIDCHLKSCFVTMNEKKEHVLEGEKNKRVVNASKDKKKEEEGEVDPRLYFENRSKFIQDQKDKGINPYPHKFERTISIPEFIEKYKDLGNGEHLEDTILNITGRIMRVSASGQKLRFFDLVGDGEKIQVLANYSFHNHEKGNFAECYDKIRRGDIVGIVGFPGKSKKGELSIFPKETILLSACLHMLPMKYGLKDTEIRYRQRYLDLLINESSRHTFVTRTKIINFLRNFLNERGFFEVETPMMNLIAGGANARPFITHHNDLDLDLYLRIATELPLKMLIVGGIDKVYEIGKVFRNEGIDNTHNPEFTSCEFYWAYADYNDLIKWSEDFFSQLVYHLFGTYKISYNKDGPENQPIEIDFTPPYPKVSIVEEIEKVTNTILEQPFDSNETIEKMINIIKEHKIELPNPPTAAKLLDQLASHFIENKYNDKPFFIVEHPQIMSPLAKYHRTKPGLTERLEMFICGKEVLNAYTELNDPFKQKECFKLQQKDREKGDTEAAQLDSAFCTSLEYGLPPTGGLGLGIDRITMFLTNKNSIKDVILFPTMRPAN
UniProt A4I591, 1-473: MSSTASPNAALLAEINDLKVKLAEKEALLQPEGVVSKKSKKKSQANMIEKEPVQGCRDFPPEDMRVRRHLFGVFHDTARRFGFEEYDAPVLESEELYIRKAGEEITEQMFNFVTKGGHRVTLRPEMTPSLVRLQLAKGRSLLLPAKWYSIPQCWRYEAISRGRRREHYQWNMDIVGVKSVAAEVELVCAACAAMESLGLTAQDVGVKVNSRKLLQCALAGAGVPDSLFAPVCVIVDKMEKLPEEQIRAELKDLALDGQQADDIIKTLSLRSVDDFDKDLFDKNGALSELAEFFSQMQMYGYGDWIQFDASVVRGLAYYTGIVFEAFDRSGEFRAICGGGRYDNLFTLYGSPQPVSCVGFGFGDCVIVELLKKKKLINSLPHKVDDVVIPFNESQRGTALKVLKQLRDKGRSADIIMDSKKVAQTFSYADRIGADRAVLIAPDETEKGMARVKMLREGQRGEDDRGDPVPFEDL
UniProt Q4DA54, 1-478: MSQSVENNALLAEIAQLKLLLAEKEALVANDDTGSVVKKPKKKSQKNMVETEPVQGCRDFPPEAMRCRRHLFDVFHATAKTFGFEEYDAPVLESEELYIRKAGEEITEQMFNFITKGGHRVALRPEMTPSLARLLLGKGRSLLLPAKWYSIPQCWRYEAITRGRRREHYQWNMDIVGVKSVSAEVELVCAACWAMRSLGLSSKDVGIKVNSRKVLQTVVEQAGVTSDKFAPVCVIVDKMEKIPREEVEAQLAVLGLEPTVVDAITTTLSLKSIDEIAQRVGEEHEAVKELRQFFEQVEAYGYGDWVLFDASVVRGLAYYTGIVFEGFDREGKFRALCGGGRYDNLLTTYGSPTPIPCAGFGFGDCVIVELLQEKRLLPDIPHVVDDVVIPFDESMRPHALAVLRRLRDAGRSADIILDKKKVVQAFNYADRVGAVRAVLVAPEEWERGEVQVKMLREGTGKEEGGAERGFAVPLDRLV

Data taken from ChEMBL document CHEMBL3988442, “University of Dundee, Small-Polar-MMV Screening Library” (2021).

Pks13 thioesterase: 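Polyketide synthase Pks13, Mycobacterium tuberculosis (UniProt I6X8D2). Enzyme assay of the thioesterase domain of polyketide synthase 13; the read-out is not stated. Tested at 30 µM. Higher reads as stronger inhibition (inferred from which compounds were picked for retests). Size under these conditions: about 67,000 compounds, about 300 of them at 50% or above in at least one test.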
PfKRS1: 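Enzyme assay of the cytosolic lysyl-tRNA synthetase in 384-well plates, read by luminescence. Target: Lysine-tRNA ligase, Plasmodium falciparum 3D7 (UniProt Q8IDJ8). Concentration: 30 µM. Higher reads as stronger inhibition, judged from the few compounds that gave an IC50. About 69,000 compounds were tested under these conditions; 0.071% (about 49) showed 50% or more at least once.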
LiHisRS: 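Enzyme assay of histidyl-tRNA synthetase; the read-out is not stated. Target: Histidine-tRNA ligase, Leishmania infantum (UniProt A4I591). Compounds at 30 µM. Higher reads as stronger inhibition (inferred: compounds with an IC50 in retests scored well above the rest). The assay is labelled LdHisRS but filed under L. infantum. Of about 69,000 compounds tested this way, about 410 (0.6%) reached 50% or more in at least one test.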
TcHisRS: 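Histidine-tRNA ligase, Trypanosoma cruzi CL Brener (UniProt Q4DA54). Enzyme assay of histidyl-tRNA synthetase; the read-out is not stated. Concentration: 30 µM. Direction is inferred from retests: higher values go with stronger inhibition. About 69,000 compounds were tested under these conditions; 0.045% (about 31) showed 50% or more at least once.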

The filed quantity is “Percent Effect” (%). The controls that fix the scale are not given in the record; negative values are as filed. The compounds are a random part of those screened.

CCc1noc(CN2CCN(CC(O)c3ccccc3)CC2)n1 (centres unmarked) gave Pks13 thioesterase: -11.84%; PfKRS1: -0.8544%; LiHisRS: -0.8696%; TcHisRS: -0.5634%. COCC(=O)NCc1cc(=O)n2c(n1)CN(Cc1ccco1)CCC2 read Pks13 thioesterase: -11.19%; PfKRS1: 4.82%; LiHisRS: 8.182%; TcHisRS: 11.64%. With O=C(NCc1cccnc1)c1nc2c(s1)CCCN2C(=O)C1CC1 the screen gave Pks13 thioesterase: -0.934%; PfKRS1: 4.406%; LiHisRS: -20.72%; TcHisRS: -14.36%. CC(=O)c1c(F)cccc1N1CCC(C(N)=O)CC1 gave Pks13 thioesterase: -30.14%; PfKRS1: -1.784%; LiHisRS: 12.9%; TcHisRS: -3.061%. COc1ccc(C)cc1C(C)NC(=O)CCn1cncn1 (centres unmarked) gave Pks13 thioesterase: -12.07%; PfKRS1: 1.223%; LiHisRS: 7.143%; TcHisRS: 5.764%. For Cc1csc2c(N3CCC(Cn4cc(C(C)(C)O)nn4)CC3)ncnc12 the result was Pks13 thioesterase: -28.05%; PfKRS1: 6.605%; LiHisRS: 38.55%; TcHisRS: 6.077%.

Result for O=C1CC(N(C(=O)c2ccc(Oc3ccccc3)cc2)C2CC2)C(=O)N1 (centres unmarked) was Pks13 thioesterase: -2.058%; PfKRS1: 9.567%; LiHisRS: 11.69%; TcHisRS: 5.419%. Result for COC(=O)c1cccc(NCC(=O)NC(N)=O)c1 was Pks13 thioesterase: -7.317%; PfKRS1: 6.575%; LiHisRS: 9.91%; TcHisRS: -6.667%. With CC(=O)N1CCC1c1cc(N2CCNC(=O)C2)nc(C)n1 (centres unmarked) the screen gave Pks13 thioesterase: 0.3324%; PfKRS1: 0.9248%; LiHisRS: 7.246%; TcHisRS: 1.515%. For Cn1nnc2c(N3CC(C(=O)NCc4cccs4)C3)ncnc21 the result was Pks13 thioesterase: -0.2113%; PfKRS1: 1.688%; LiHisRS: 24.39%; TcHisRS: 7.212%. For CSCC(=O)N1C[C@H]2CC[C@@H]1CN(C1Cc3ccccc3C1)C2 the result was Pks13 thioesterase: -8.899%; PfKRS1: 7.464%; LiHisRS: 19.67%; TcHisRS: 0%. With O=C(Nc1ccc(F)cc1)N1C[C@H]2CC[C@@H]1CN(Cc1cccnc1)C2 the screen gave Pks13 thioesterase: -10.19%; PfKRS1: 5.065%; LiHisRS: 26.92%; TcHisRS: 4.132%.

Result for COc1ccc(C2CCCN2c2cnc3ccccc3n2)c(OC)c1 (centres unmarked) was Pks13 thioesterase: 22.28%; PfKRS1: 5.155%; LiHisRS: 10.42%; TcHisRS: 12.66%. For CN(C)CCN1CCCC12CCN(C(=O)c1ccco1)CC2 the result was Pks13 thioesterase: -8.482%; PfKRS1: 2.395%; LiHisRS: 13.76%; TcHisRS: 7.212%. For CCn1cnnc1CCNC(=O)CCNC(=O)c1ccccc1F the result was Pks13 thioesterase: -5.325%; PfKRS1: 1.744%; LiHisRS: 7.752%; TcHisRS: 11.9%. For CC(C)C(=O)NCC(=O)N(C)C1CCCN(CCc2ccccc2)C1 (centres unmarked) the result was Pks13 thioesterase: -11.7%; PfKRS1: 2.821%; LiHisRS: 13.46%; TcHisRS: -1.667%. Cc1cc(C)cc(OCCN(C)Cc2cscn2)c1 read Pks13 thioesterase: 3.601%; PfKRS1: -0.1937%; LiHisRS: -2.521%; TcHisRS: 5.882%. With O=C(O)[C@@H]1CN(CCOCCO)C[C@H]1c1ccccc1 the screen gave PfKRS1: 0.1848%; LiHisRS: 17.65%; TcHisRS: 11.11%.

Result for CC(=O)N(C)C(c1cccnc1)c1ccc(F)c(F)c1 (centres unmarked) was Pks13 thioesterase: 5.995%; PfKRS1: 1.644%; LiHisRS: 14.47%; TcHisRS: 3.448%. Cc1nc(Nc2ncccn2)cc(C2CCCN2Cc2ncc[nH]2)n1 (centres unmarked) read Pks13 thioesterase: -4.382%; PfKRS1: 0.1073%; LiHisRS: 4.124%; TcHisRS: 4.444%. With CN(CCC#N)C(=O)CN1CCCN(Cc2noc(C3CC3)n2)CC1 the screen gave Pks13 thioesterase: -0.3978%; PfKRS1: 3.866%; LiHisRS: 17.81%; TcHisRS: 7.882%. With Oc1cccc(CN2C[C@H]3CC[C@@H]2CN(Cc2ccncc2)C3)c1 the screen gave Pks13 thioesterase: -24.14%; PfKRS1: 6.395%; LiHisRS: 32.89%; TcHisRS: 7.609%. With CCCn1nccc1C(=O)Nc1ncc(C)s1 the screen gave Pks13 thioesterase: -8.983%; PfKRS1: 6.621%; LiHisRS: 12.9%; TcHisRS: 8.808%. Result for CC(c1nccs1)N(C)S(=O)(=O)NCc1ccccc1 (centres unmarked) was Pks13 thioesterase: 42.47%; PfKRS1: -2.063%; LiHisRS: 22.35%; TcHisRS: 9.045%.

COc1cccc2c1OCC(NCCCOc1cccnc1)C2 (centres unmarked) read Pks13 thioesterase: -14.14%; PfKRS1: 2.934%; LiHisRS: 0%; TcHisRS: 5.473%. CC(=O)N[C@H]1CCO[C@@H](c2cccc(NC(=O)C(C)(C)C)c2)C1 read Pks13 thioesterase: 5.819%; PfKRS1: 2.787%; LiHisRS: 5.594%; TcHisRS: 1.695%. With OC1(CNCCCN2CCCc3ccccc32)CNCCOC1 (centres unmarked) the screen gave Pks13 thioesterase: -9.15%; PfKRS1: 3.771%; LiHisRS: 34.07%; TcHisRS: 4.124%. CN1CCN(CCCNS(=O)(=O)Cc2ccccc2F)CC1 gave Pks13 thioesterase: -25.03%; PfKRS1: -0.6645%; LiHisRS: 9.091%; TcHisRS: 3.261%. For COCCN(Cc1ccco1)Cc1nc(-c2ccccc2C)no1 the result was Pks13 thioesterase: 8.868%; PfKRS1: 4.068%; LiHisRS: 2.521%; TcHisRS: 8.824%.